Experimental data reported in PubChem BioAssay AID1671190 (National Center for Advancing Translational Sciences (NCATS), 2021).
The campaign covered roughly 580,000 compounds. About 6,100 (1.1%) were called active. The inconclusive results got no clear call from the source; some entries with a clear call stand among them for comparison. Calls follow the shape of the dose curve; as a rule, active = well fitted inhibition curve with a large enough effect; inconclusive = small, poorly fitted or top-dose-only effect, or another doubt; inactive = no such curve, though single readings can be large or run the other way. Potencies beside an inconclusive call are fits to weak or partial responses and may not hold up.

The chains behind the UniProt entries cited, without tags or fusion partners. Where a name states a change or a piece, a line headed by the entry shows the natural chain unless it says otherwise.
UniProt P18054: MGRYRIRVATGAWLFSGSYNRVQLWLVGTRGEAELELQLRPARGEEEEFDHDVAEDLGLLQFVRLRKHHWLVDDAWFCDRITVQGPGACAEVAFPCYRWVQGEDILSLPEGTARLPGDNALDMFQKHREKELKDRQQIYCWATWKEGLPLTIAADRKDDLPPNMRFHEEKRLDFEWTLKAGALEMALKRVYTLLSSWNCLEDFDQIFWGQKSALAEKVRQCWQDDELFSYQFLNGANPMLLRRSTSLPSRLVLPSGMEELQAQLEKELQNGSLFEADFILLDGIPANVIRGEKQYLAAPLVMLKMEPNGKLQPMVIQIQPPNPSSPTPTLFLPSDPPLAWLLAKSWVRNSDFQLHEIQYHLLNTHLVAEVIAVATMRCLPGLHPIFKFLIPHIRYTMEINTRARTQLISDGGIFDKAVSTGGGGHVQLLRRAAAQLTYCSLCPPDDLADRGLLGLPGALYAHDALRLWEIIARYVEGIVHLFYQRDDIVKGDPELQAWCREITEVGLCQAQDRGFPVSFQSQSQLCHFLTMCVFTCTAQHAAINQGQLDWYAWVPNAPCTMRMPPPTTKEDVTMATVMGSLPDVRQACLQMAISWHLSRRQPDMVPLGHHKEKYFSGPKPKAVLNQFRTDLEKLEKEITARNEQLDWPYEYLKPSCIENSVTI

Molecular target: Polyunsaturated fatty acid lipoxygenase ALOX12 (Homo sapiens) (UniProt P18054)
Test: Primary qHTS assay for inhibitors of human arachidonate 12S-lipoxygenase (ALOX12): Round 2
Details: purified 12hLO, xylenol orange hydroperoxide absorbance; series mostly up to 108 µM
Outline: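 Purified human 12hLO (150 nM final) in 25 mM Hepes, 0.01% Triton X-100, pH 7.0 was preincubated 15 min at room temperature with compound. Then 40 uM arachidonic acid was added, 30 min. Hydroperoxide was read by Fe-XO absorbance ratio 573/405 nm.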
Potency is read from the fitted curve at half-maximal effect.

Row | SMILES | Potency
1 | Cc1ccc(-n2c(=O)[nH]c3c(C(N)=O)nc(-c4ccc(C)o4)nc32)cc1 | inconclusive: 17.8 µM [inhibitor, partial curve]
2 | COc1ccc(CN2CCNC(=O)C2CC(=O)NCCCn2cccn2)cc1C (stereo not drawn) | inconclusive: 39.8 µM [inhibitor, single point]
3 | C[C@H]1CCC/C=C/[C@@H]2C[C@H](O)C[C@H]2[C@H](O)[C@H](S(=O)c2ccc(O)cc2)CC(=O)O1 (stereo partly drawn) | active: 39.8 µM
4 | CC1Oc2ccccc2OC1C(=O)Nc1ccccn1 (stereo not drawn) | inactive
5 | CN(C)CCOC(=O)NC12CC3CC(CC(C3)C1)C2 | inconclusive: 50.1 µM [inhibitor, single point]
6 | CCCCNc1c(-c2cccc(OC)c2)nc2nc(C)cc(C)n12 | inconclusive: 141 µM [inhibitor, single point]
7 | Cc1ccc(S(=O)(=O)N/N=C2/CCCCC2C2CCCCC2)cc1[N+](=O)[O-] (stereo not drawn) | inactive
8 | Cc1ccc(SCC(=O)OCC(=O)N(CC(C)C)c2c(N)n(Cc3ccccc3)c(=O)[nH]c2=O)cc1C | inconclusive: 44.7 µM [inhibitor, partial curve, poor fit]
9 | c1ccc(CN(Cc2ccccc2)Cc2ccccc2)cc1 | inconclusive: 200 µM [inhibitor, single point]
10 | Cc1ccc2c(c1)nnn2C1CCN(CC(=O)c2ccc(Cl)cc2)CC1 | inconclusive: 112 µM [inhibitor, single point]
11 | Cc1ccc(NC(=O)CCC[C@H]2NC[C@@H]3C[C@H]2CN(Cc2ccccc2)C3)cc1 | inconclusive: 2.82 µM [inhibitor, partial curve, poor fit]
12 | O=C(CNCc1ccc(Cl)cc1)Nc1ccc(C(=O)N2CCCCC2)cc1 | inconclusive: 3.16 µM [inhibitor, full curve, poor fit]
13 | Cc1ccc(C(=O)CC2(O)C(=O)N(C)c3ccc(Br)cc32)c(C)c1 (stereo not drawn) | inactive
14 | Cc1cc(C(=O)N2CCC(Oc3ccc(C(=O)NC4CCCC4)cc3Cl)CC2)n(C)n1 | inactive
15 | COc1c2ccccc2nc2ccccc12 | inconclusive: 31.6 µM [inhibitor, single point]
16 | COc1ccc(NC(=O)COC(=O)c2c(C)noc2C)cc1Cl | inactive
17 | CC(C)C(C=Cc1ccccc1)=NNS(=O)(=O)c1ccccc1 | inconclusive: 141 µM [inhibitor, partial curve, poor fit]
18 | Cc1cc(NC(=O)CCN2C(=O)c3ccccc3C2=O)no1 | inactive
19 | Cc1[nH]n(-c2ccccc2)c(=O)c1N=Nc1cccc([N+](=O)[O-])c1 | inactive
20 | Cc1ccc(C(=O)NCCc2nc3cc(NC(=O)C4CCCCC4)ccc3n2C)cc1F | inconclusive: 39.8 µM [inhibitor, partial curve, poor fit]
21 | C/C(Cn1nnc2ccccc21)=N\OC(=O)c1ccccc1C | inconclusive: 141 µM [inhibitor, partial curve, poor fit]
22 | COc1cccc(-c2csc(-c3cc4cccc(OC)c4oc3=O)n2)c1 | inconclusive: 79.4 µM [inhibitor, single point]

By substructure, the compounds so far containing a nitro group on carbon (2)
Row | SMILES | Potency
7 | Cc1ccc(S(=O)(=O)N/N=C2/CCCCC2C2CCCCC2)cc1[N+](=O)[O-] (stereo not drawn) | inactive
19 | Cc1[nH]n(-c2ccccc2)c(=O)c1N=Nc1cccc([N+](=O)[O-])c1 | inactive

2 of these compounds, reformatted.
Row	SMILES	Potency
2	COc1ccc(CN2CCNC(=O)C2CC(=O)NCCCn2cccn2)cc1C (stereo not drawn)	inconclusive: 39.8 µM [inhibitor, single point]
21	C/C(Cn1nnc2ccccc21)=N\OC(=O)c1ccccc1C	inconclusive: 141 µM [inhibitor, partial curve, poor fit]

Following part

Row | SMILES | Potency
23 | COCc1nn2c(=O)c(NC(=O)c3ccccc3)cnc2s1 | inconclusive: 56.2 µM [inhibitor, partial curve, poor fit]
24 | COCC(=O)N(C1CCOCC1)C1CCN(C(=O)Cc2ccc(OC)cc2)CC1 | inactive
25 | Cc1cc(OCCCCNC(C)C)cc(C(C)C)c1 | inconclusive: 5.01 µM [inhibitor, full curve, poor fit]
26 | COc1ccc(C(C)(O)c2nc(/C=C/c3ccccc3)cs2)cc1 (stereo not drawn) | inconclusive: 100 µM [inhibitor, single point]
27 | CC(C)(C)NCCOc1ccc(Br)cc1 | inconclusive: 0.562 µM [inhibitor, full curve, poor fit]
28 | COc1cccc(CNC(=O)Cn2ncc3c4ccccc4n(Cc4ccccc4)c3c2=O)c1 | inconclusive: 56.2 µM [inhibitor, partial curve, poor fit]
29 | Cc1nn(Cc2cccc(C(=O)Nc3ccn(Cc4ccccc4F)n3)c2)c(C)c1[N+](=O)[O-] | inactive
30 | CCOC(=O)N1CCN(S(=O)(=O)c2ccc(C(=O)Nc3sc4c(c3C(=O)OC)CCN(C)C4)cc2)CC1 | inconclusive: 44.7 µM [inhibitor, partial curve, poor fit]
31 | O=C(NCCc1csc2nc(-c3ccc(F)cc3)nn12)c1cccc(C(F)(F)F)c1 | inconclusive: 100 µM [inhibitor, single point]
32 | COc1ccc(S(=O)(=O)N2C[C@@H]3C[C@H](C2)c2c(NS(=O)(=O)c4ccccc4)ccc(=O)n2C3)cc1 | inconclusive: 14.1 µM [inhibitor, full curve, poor fit]
33 | Cc1n(C)c2cc(Cl)ccc2[n+]1Cc1ccccc1 | inconclusive: 44.7 µM [inhibitor, partial curve, poor fit]
34 | COc1cccc(C2c3cc4c(cc3OC(NNC(N)=O)C2C)OCO4)c1O (stereo not drawn) | active: 15.8 µM
35 | CCCn1nnc(NC(=S)NC(=O)C(C)(C)C)n1 | inconclusive: 10 µM [inhibitor, partial curve, poor fit]
36 | N#CC(C(=O)CCc1ccccc1)C(=O)NCc1ccccc1 (stereo not drawn) | inconclusive: 2.82 µM [inhibitor, full curve]
37 | Cc1cc(C(=O)Nc2nnc(C(F)(F)F)s2)cs1 | inactive
38 | CC/C=C(/C)C(=O)NCC(c1cccs1)N(C)C (stereo not drawn) | inconclusive: 3.55 µM [inhibitor, full curve, poor fit]
39 | Fc1ccc(Nc2ncncc2-c2ccoc2)cc1 | active: 39.8 µM
40 | C=CCc1cc(Cl)ccc1OCCOCCN(C)C | inconclusive: 0.794 µM [inhibitor, full curve, poor fit]
41 | CC(=O)OC(C[N+]1(C)CCCCCC1)c1ccccc1 (stereo not drawn) | inconclusive: 50.1 µM [inhibitor, partial curve, poor fit]
42 | CNc1nc2c(c(C(=O)N3CCCC3)n1)CN(CC1(O)CCNC1)CC2 (stereo not drawn) | inconclusive: 7.94 µM [inhibitor, full curve]
43 | O=C(Nc1ccc2nc(N3CCN(C4CCCCC4)CC3)cc(C(=O)O)c2c1)c1ccc(Cl)cc1 | active: 12.6 µM
